Some of the results follow. Shown are side measurements of this screen, not its main read-out; they come without a call. Most of these compounds were active or inconclusive in the main read-out, so they are no random draw. Potencies come from curve fits of mixed quality, noted in brackets.
assay: qHTS Assay to Find Inhibitors of Chronic Active B-Cell Receptor Signaling; settings: ABC-DLBCL IkBa-CBG/CBR reporter, luminescence ratio (green luciferase fused to IkBa over red control in TMD8 lymphoma cells), 4 h; measured here: CBR red luminescence, cell number
Procedure, shortened: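 Cell line TMD8 (human ABC DLBCL), stably expressing tet-inducible CBG68-IkBa fusion and CBR; IMDM/0.5% FBS; cpd up to 46 uM; dox induction, 4 h, 37C/5% CO2; dual luminescence; green/red ratio; MG132 control.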

Row | Structure (SMILES) | AC50
1 | Cn1ncc(C(=O)Nc2ccc(OC(F)(F)F)cc2)c1-n1cccc1 | 12.6 µM [rising, partial curve, poor fit]
2 | COc1cccc(NC(=S)/C(=C(\[O-])c2ccc(OC(F)F)cc2)[n+]2ccccc2)c1 | 35.5 µM [falling, single point]
3 | COCCn1c(N)c(C#N)c2nc3ccccc3nc21 | 6.51 µM [falling, single point]
4 | CCCCN1C(=O)c2ccc(C(=O)NCc3ccco3)cc2C1=O | 0.708 µM [falling, partial curve, poor fit]
5 | COc1ccc(NC(=O)COC(=O)CC2CCCCC2)cc1 | 13 µM [rising, partial curve, poor fit]
6 | Cc1cc(C(=O)CCC(=O)Nc2ccc(S(N)(=O)=O)cc2)c(C)s1 | 29.1 µM [falling, partial curve, poor fit]
7 | CCON1C(=O)C(C)(C)N(OCC)C(=O)C1(C)C | 20 µM [rising, partial curve, poor fit]
8 | CC(C)(C)SCCSC1=CC(=O)CC(c2ccccc2)C1 (stereo not drawn) | 15.8 µM [rising, single point]
9 | COc1cc(C2CC(c3ccccc3)=NN2c2ccccc2)ccc1OCC(=O)O (stereo not drawn) | 1.26 µM [falling, full curve]
10 | CCCC(=O)Nc1ccc2nn(-c3ccc(OC)cc3)nc2c1 | 11.2 µM [rising, partial curve, poor fit]
11 | CCOC(=O)C1CCCN(Cc2cccs2)C1 (stereo not drawn) | 29.1 µM [rising, single point]
12 | COc1ccc(NC(=O)/C=C\C(=O)N(c2ccc(C(C)C)cc2)C(C(=O)NCc2ccco2)c2ccc(C)cc2)cc1 (stereo not drawn) | 10 µM [falling, partial curve, poor fit]
13 | Cn1c2ccccc2n2c(=O)cc(-c3ccccc3)c(C#N)c12 | 0.398 µM [falling, full curve]
14 | C/C(=N/NC(=O)c1ccc(C)s1)c1cccc(NC(=O)c2ccoc2C)c1 | 35.5 µM [falling, partial curve, poor fit]
15 | O=C(Nc1ccc(Cl)cn1)c1ccccc1[N+](=O)[O-] | 10 µM [falling, partial curve, poor fit]
16 | Cn1c(C(=O)NCCN2CCCCCC2)cc2c(=O)n(C)c3ccccc3c21 | 5.17 µM [rising, single point]
17 | O=C(Nc1c(F)cc(F)cc1Br)c1cc(-c2ccccc2)on1 | 3.98 µM [falling, full curve, poor fit]
18 | COc1cccc(Nc2nc3cc(C)ccc3nc2NS(=O)(=O)c2ccc(Cl)cc2)c1 | 2.51 µM [falling, partial curve, poor fit]

Looked up one by one from the list above, 2 records:
Row | Structure (SMILES) | AC50
2 | COc1cccc(NC(=S)/C(=C(\[O-])c2ccc(OC(F)F)cc2)[n+]2ccccc2)c1 | 35.5 µM [falling, single point]
8 | CC(C)(C)SCCSC1=CC(=O)CC(c2ccccc2)C1 (stereo not drawn) | 15.8 µM [rising, single point]

— PubChem BioAssay AID493014 (National Center for Advancing Translational Sciences (NCATS), 2011)
